Results published in article PMC4686931.
These are yes or no findings as the source states them, for the method shown. Binding seen in cells or lysates may run through a third protein. Some entries that bind do so weakly or less than the wild type.

Chains of the proteins cited; added tags and fusions are not shown.
UniProt Q04207: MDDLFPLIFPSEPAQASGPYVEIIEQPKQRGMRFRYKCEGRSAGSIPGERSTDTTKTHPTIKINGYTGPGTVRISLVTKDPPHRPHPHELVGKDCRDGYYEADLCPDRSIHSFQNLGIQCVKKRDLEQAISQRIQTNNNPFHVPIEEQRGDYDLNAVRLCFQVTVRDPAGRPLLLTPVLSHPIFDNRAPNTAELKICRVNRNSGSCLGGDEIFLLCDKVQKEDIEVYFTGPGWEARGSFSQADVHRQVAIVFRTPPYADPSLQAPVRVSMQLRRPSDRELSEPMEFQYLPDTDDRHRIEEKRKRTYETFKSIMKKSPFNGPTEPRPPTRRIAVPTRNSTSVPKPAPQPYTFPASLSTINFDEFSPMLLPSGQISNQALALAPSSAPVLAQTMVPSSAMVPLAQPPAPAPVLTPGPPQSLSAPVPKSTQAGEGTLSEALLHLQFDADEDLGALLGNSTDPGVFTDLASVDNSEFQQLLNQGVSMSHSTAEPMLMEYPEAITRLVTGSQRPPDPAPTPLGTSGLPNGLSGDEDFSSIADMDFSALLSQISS

T1: Vitamin D receptor (mouse (endogenous in kidney)) (UniProt P48281)
T1 sequence: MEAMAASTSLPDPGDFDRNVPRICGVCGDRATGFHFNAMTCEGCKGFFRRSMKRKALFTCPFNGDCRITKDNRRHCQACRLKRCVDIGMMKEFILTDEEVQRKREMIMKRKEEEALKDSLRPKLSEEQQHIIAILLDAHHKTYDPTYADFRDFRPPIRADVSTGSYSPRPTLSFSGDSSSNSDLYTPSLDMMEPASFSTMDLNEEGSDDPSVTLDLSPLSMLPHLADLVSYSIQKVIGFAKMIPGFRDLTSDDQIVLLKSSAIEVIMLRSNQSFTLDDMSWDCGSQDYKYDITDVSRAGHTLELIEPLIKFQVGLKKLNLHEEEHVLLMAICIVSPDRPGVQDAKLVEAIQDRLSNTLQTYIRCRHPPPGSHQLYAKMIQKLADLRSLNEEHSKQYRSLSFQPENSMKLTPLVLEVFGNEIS


Key:
[1] = biological target: T1, Vitamin D receptor (mouse (endogenous in kidney)); assay: co-IP; mouse kidney lysate (300 μg, RIPA buffer; nuclear fractions according to the legend) precleared with protein A/G-agarose, incubated with agarose-conjugated VDR or NF-κB p65 antibody at 4 °C overnight, immunoblot for the other protein; mice pretreated with VitD3 (25 μg/kg at 48, 24 and 1 h) before LPS (1.0 mg/kg), kidneys collected 1 h after LPS
[2] = biological target: nuclear factor kappa B (NF-κB) p65 subunit (mouse (endogenous in kidney)) (UniProt Q04207); assay: as above

Row | binding [1] | binding [2] | Molecule
1 | binds | – | nuclear factor kappa B (NF-κB) p65 subunit (from UniProt Q04207 1-549)
2 | – | binds | Vitamin D receptor (protein, UniProt P48281 1-422) MEAMAASTSLPDPGDFDRNVPRICGVCGDRATGFHFNAMTCEGCKGFFRRSMKRKALFTCPFNGDCRITKDNRRHCQACRLKRCVDIGMMKEFILTDEEVQRKREMIMKRKEEEALKDSLRPKLSEEQQHIIAILLDAHHKTYDPTYADFRDFRPPIRADVSTGSYSPRPTLSFSGDSSSNSDLYTPSLDMMEPASFSTMDLNEEGSDDPSVTLDLSPLSMLPHLADLVSYSIQKVIGFAKMIPGFRDLTSDDQIVLLKSSAIEVIMLRSNQSFTLDDMSWDCGSQDYKYDITDVSRAGHTLELIEPLIKFQVGLKKLNLHEEEHVLLMAICIVSPDRPGVQDAKLVEAIQDRLSNTLQTYIRCRHPPPGSHQLYAKMIQKLADLRSLNEEHSKQYRSLSFQPENSMKLTPLVLEVFGNEIS
